Whole data set: some 1,700 compounds, median “T2 sensor activation Q score (MG/GFP ratio z-score vs DMSO controls)” near 0.3, cut for the highest 2% near 1.9. Some of the results follow.
tested on: ppGalNAc-T2 sensor; test: T2 sensor activation Q score (MG/GFP ratio z-score vs DMSO controls) (SD units); higher = more sensor activation (inhibition of ppGalNAc-T2 glycosylation); conditions: HEK293 sensor cells; 10 µM; 6 h
Experimental: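 Cells were treated with compound at 10 uM for 6 h, then MG/GFP ratio was read by flow cytometry (10,000 cells per well, duplicate wells). Q = (R - R_neg)/SD_neg relative to DMSO vehicle controls; the signal rises when the glycosyltransferase is inhibited.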

SMILES | T2 sensor activation Q score
Clc1ccccc1-c1nc(-c2ccncc2)no1 | -0.65
O=C(O)CCc1cccnc1 | -0.8
Nc1ccccc1C(=O)Nc1ccc(Cl)cc1Cl | 0.45
N#Cc1cc(-c2ccccc2)[nH]c1-c1nccc2ccccc12 | -0.2
C=CCOC(=O)/C=C\C(=O)NC(N)=O | 0.05
CC(=O)c1cc2c(cc1C)CCCC2(C)C | -0.35
CC(C)(C)c1nc(-c2cccc(NS(=O)(=O)c3c(F)cccc3F)c2F)c(-c2ccnc(N)n2)s1 | -0.35
O=C(c1ccccc1)c1ccc(-c2ccc(O)cc2)cc1 | 1.55
N#CCS(=O)(=O)c1cccc[n+]1[O-] | 0.45
CC1(C)c2ccccc2-c2nc3ccccc3cc2C1O (stereo not given) | -0.95
O=CN/C=C\c1cc(O)ccc1O | -0.3
COC(=O)[C@H]1[C@H]2C[C@@H]3c4[nH]c5cc(OC)ccc5c4CCN3C[C@H]2C[C@@H](OC(=O)CC(C)=O)[C@@H]1OC | 0.45
O=C1C(CO)C(CO)C(CO)C1CO (stereo not given) | -2.3
N#CC1=C2CCCCC2(O)NC1=O (stereo not given) | 0.85
Nc1cc(-c2ccccc2)ccc1O | -0.5
O=C1N=NC2=C1c1c3ccccc3c(O)n1CC2 | 1.8
Nc1ccccc1SC1CC(=O)N(c2ccc(Cl)c(Cl)c2)C1=O (stereo not given) | 0.6
Nc1ccccc1SC1CC(=O)N(c2ccccc2Cl)C1=O (stereo not given) | 0.25
NC(N)=Nc1ccc(N=C(N)N)cc1 | 0.85
Nc1ccc(S(=O)(=O)Nc2cnc3ccccc3n2)cc1 | 0.95
O=c1ccn2c(n1)SC(c1ccccc1)C2 (stereo not given) | 0.65
N#Cc1ncc(Cl)c2ccccc12 | 1.3
CSc1nc(O)c(Nc2cccc(Cl)c2)c(=O)[nH]1 | -0.55
Oc1ccccc1N=Cc1c(O)ccc2ccccc12 | -0.4
COc1ccc2c(=O)cc(-c3cccnc3)oc2c1OC | 1
CCCCSc1cc(C)nc(N)n1 | -0.05
O=C(Nc1ccc(Cl)cc1)Nc1cccc2nsnc12 | 1.2

SMILES | T2 sensor activation Q score
Cn1c(SCc2ccccn2)nc2c1c(=O)[nH]c(=O)n2C | 1.15
CSc1cccc(NC(=O)N2CCN(C)CC2)c1 | 0.5
C#CCCOC(=O)Nc1ccccc1 | -0.95
Clc1ccc(SCNc2ccccc2Cl)cc1 | -1.05
OC(c1cc(-c2ccc(C(F)(F)F)cc2)nc(C(F)(F)F)c1)C1CCCCN1 (stereo not given) | 0.5
N=C(N)n1c(N)nc2ccccc2c1=O | -0.1
COC(=O)Cc1[nH]c(=O)[nH]c1C(=O)OC | 1.15
O=C1NC(=O)N2CCSC2(Cc2ccccc2)N1 (stereo not given) | 0.8
Cc1cc(OCCCCOc2ccc(C#N)cc2)ccc1[N+](=O)[O-] | 1.45
C=C(C)C(=O)Oc1ccc(N=Nc2ccc(C)cc2)ccc1=O | 1.1
Oc1ccc(/C=C/c2cnccn2)cc1 | 0.55
CCOC(=O)c1c(N)ssc1=S | -0.15
CC12C(=O)N(c3nccs3)C(=O)C1(C)C1CCC2O1 (stereo not given) | -1.25
Cn1c(=O)c2[nH]c(SCc3ccccn3)nc2n(C)c1=S | 0.45
CN1C(=O)CC2(C)C1=CCc1scnc12 (stereo not given) | 0.6
O=C(N(c1ccccc1)c1ccccc1)N(c1ccccc1)c1ccccc1 | 1.2
CCC(CC)NCCOC(=O)c1ccc([N+](=O)[O-])cc1 | -1
O=[N+]([O-])c1cccc(/C=C/c2ccccn2)c1 | -1.2
CC12CCC(C(=Nc3ccc(N=C4C(=O)C5(C)CCC4C5(C)C)cc3)C1=O)C2(C)C | 1
Cc1cn(-c2cc(NC(=O)c3ccc(C)c(Nc4nccc(-c5cccnc5)n4)c3)cc(C(F)(F)F)c2)cn1 | 1.25
CC1=CC(C)(C)NC(=S)N1c1cccc2cc(S(=O)(=O)O)ccc12 | 1.05
OC(C#Cc1ccccc1)(c1ccccc1)c1ccccc1 | 0
C1CCCC(NC2=NCCO2)CCC1 | 0
O=[N+]([O-])c1ccc(Sc2cccc[n+]2[O-])c2nonc12 | -0.55
Cc1ccc(Nc2n[nH]c(=S)s2)cc1F | -0.95
O=c1cc(-c2ccc(O)cc2)oc2c(O)c(O)c(O)c(O)c12 | 1.35
CC(C)(CO)N1CCN(C(=S)Nc2ccccc2)CC1 | 1.45

SMILES | T2 sensor activation Q score
O=c1[nH]c(=O)n2ncnc2[nH]1 | -0.4
CC12CCC(C1)C(C)(C)C2OC(=O)c1ccccc1C(=O)O (stereo not given) | 1.3
c1ccc(-c2nc[nH]c2-c2ccccc2)cc1 | 0.05
COc1ccn(C2CCCCO2)c(=O)n1 (stereo not given) | 0.7
CC1=CC(=O)Nc2cncnc2N1 | -1.85
CC(=O)N1C(=O)C2(NCC(C)N2)c2ccccc21 (stereo not given) | 0.45
CCS(=O)(=O)C1C(=O)N(C)C(S(=O)(=O)CC)C(=O)N1C (stereo not given) | 0.9
COc1cc(CC(=O)C(=O)O)oc(=O)c1 | 0.95
COc1cccc2c1C(=O)c1c(O)c3c(c(O)c1C2=O)C[C@@](O)(C(=O)CO)C[C@@H]3O[C@H]1C[C@H](N)[C@@H](O)[C@H](C)O1 | -2.9
Nc1o[nH]c(=O)c1C1CCCCC1 | -0.8
C=CCC(CC)C(=O)NC(=O)N1CCCc2ccccc21 (stereo not given) | 1.05
COC(=O)C[C@](O)(CCCC(C)(C)O)C(=O)O[C@@H]1C(OC)=C[C@]23CCCN2CCc2cc4c(cc2[C@H]13)OCO4 | 4.5
CCOC(=O)/C=C/c1nc(C(=O)OCC)c(C)c(=O)[nH]1 | -0.1
CCCn1cnc2c(=S)nc(N)[nH]c21 | 0.15
COc1cc(/C=N/Nc2nc3c([nH]2)c(=O)n(C)c(=O)n3C)ccc1O | 1.7
CC(=O)O[C@H]1C(=O)[C@@]2(C)[C@H]([C@H](OC(=O)c3ccccc3)[C@]3(O)C[C@H](OC(=O)[C@H](O)[C@@H](NC(=O)c4ccccc4)c4ccccc4)C(C)=C1C3(C)C)[C@]1(OC(C)=O)CO[C@@H]1C[C@@H]2O | -0.9
NC(=S)NC(=O)c1ccccc1 | 1.4
CCCSc1ncnc2[nH]ncc12 | 0.65
O=[N+]([O-])c1ccc(/C=[N+](\[O-])CCO)o1 | 1.2
NC(N)=NC(=S)Nc1ccc(Cl)cc1 | -1.6
C=CCOCCN(CC)CC | -1.25
Cc1ccc(Cl)cc1NC(=O)c1cc2ccccc2cc1O | -0.35
CCOP(=O)(OCC)/C(C#N)=C/c1ccc(-c2ccc(F)cc2F)o1 | -0.9
CC(C)n1cc(C#N)c(N)n1 | 1.55
O=[N+]([O-])c1ccc2[nH]c3nc4ccccc4nc3c2c1 | 0.95
O=C(O)CSc1ccc(NC(=O)Nc2ccccc2F)cc1 | 0.4

Given with each value named: entries from further up.
Clc1ccccc1-c1nc(-c2ccncc2)no1
  T2 sensor activation Q score: -0.65
COc1cccc2c1C(=O)c1c(O)c3c(c(O)c1C2=O)C[C@@](O)(C(=O)CO)C[C@@H]3O[C@H]1C[C@H](N)[C@@H](O)[C@H](C)O1
  T2 sensor activation Q score: -2.9
CCCn1cnc2c(=S)nc(N)[nH]c21
  T2 sensor activation Q score: 0.15
